# Experimental data taken from the supplement of paper PMC7024190.
# Structures can show the parent of a compound that is named as a salt. The list shows a part of the results. Single values are uncertain here, since repeats match poorly.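 A first-round screen of about ten thousand compounds sought those raising reporter output, using human embryonic kidney cells briefly transfected with a plasmid carrying a Renilla luciferase gene driven by the HSV-TK promoter.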
# Tested on: HEK 293FT
# Assay: log relative Renilla luciferase luminescence (reporter expression vs reference, reference not stated) (log (base not stated)); higher = higher recombinant reporter expression
# Details: 10 µM; time after transfection 48 h
row,Compound,log
1,Cc1ccc(N(CC2=NCCN2)c2cccc(O)c2)cc1 [phentolamine hydrochloride],-0.137
2,O=C(O)c1ccccc1-c1c2cc(I)c(=O)c(I)c-2oc2c(I)c(O)c(I)cc12 [erythrosine sodium],-0.0105
3,CCc1ccc(CCOc2ccc(CC3SC(=O)NC3=O)cc2)nc1 (centres undefined) [pioglitazone hydrochloride],-0.0193
4,Cc1c(Cl)cccc1Nc1ccccc1C(=O)O [tolfenamic acid],0.0409
5,CCCSc1ccc2[nH]c(NC(=O)OC)nc2c1 [albendazole],-0.231
6,C[C@@H]1CC[C@H]2C(C)(C)[C@H]3C[C@@]12CC[C@@]3(C)O [cedrol],-0.0245
7,CC(=O)C1=C(O)C=C2Oc3c(C(C)=O)c(O)c(C)c(O)c3C2(C)C1=O (stereo in doubt) [usnic acid],0.115
8,CO[C@H]1/C=C/O[C@@]2(C)Oc3c(C)c(O)c4c(O)c(c(/C=N/N5CCN(C)CC5)c(O)c4c3C2=O)NC(=O)/C(C)=C\C=C\[C@H](C)[C@H](O)[C@@H](C)[C@@H](O)[C@@H](C)[C@H](OC(C)=O)[C@@H]1C [rifampin],-0.00201
9,COc1cc(C)c(C(=O)O)c(O)c1 [everninic acid],0.0459
10,CC(C(=O)O)c1ccc(CC2CCCC2=O)cc1 (centres undefined) [loxoprofen],0.097
11,CC[C@H]1OC(=O)[C@H](C)[C@@H](O[C@H]2C[C@@](C)(OC)[C@@H](O)[C@H](C)O2)[C@H](C)[C@@H](O[C@@H]2O[C@H](C)C[C@H](N(C)C)[C@H]2O)[C@](C)(O)C[C@@H](C)C(=O)[C@H](C)[C@@H](O)[C@]1(C)O [erythromycin stearate],0.0547
12,CC[C@H]1OC(=O)[C@H](C)[C@@H](O[C@H]2C[C@@](C)(OC)[C@@H](O)[C@H](C)O2)[C@H](C)[C@@H](O[C@@H]2O[C@H](C)C[C@H](N(C)C)[C@H]2O)[C@](C)(O)C[C@@H](C)C(=O)[C@H](C)[C@@H](O)[C@]1(C)O [erythromycin],0.122
13,CC1=C(/C=C/C(C)=C/C=C/C(C)=C/C=C/C=C(C)/C=C/C=C(C)/C=C/C2=C(C)CCCC2(C)C)C(C)(C)CCC1 [beta-carotene],-0.681
14,c1ccc(CC2=NCCN2)cc1 [tolazoline hydrochloride],0.0583
15,NCCCCC(=O)O [5-aminopentanoic acid hydrochloride],0.0209
16,OCCN1CCN(CCCN2c3ccccc3Sc3ccc(C(F)(F)F)cc32)CC1 [fluphenazine hydrochloride],0.175
17,CC(C)(Oc1ccc(CCNC(=O)c2ccc(Cl)cc2)cc1)C(=O)O [bezafibrate],-0.0516
18,CC1=CC(=O)[C@H]2C(C)(C)CCC[C@]2(C)[C@@]1(O)CCc1ccoc1 [solidagenone],-0.0804
19,CC(=O)OCC(=O)[C@H]1CC[C@H]2[C@@H]3CC=C4C[C@@H](O)CC[C@]4(C)[C@H]3CC[C@]12C [21-acetoxypregnenolone],0.133
20,Clc1ccc2c(c1)C(N1CCNCC1)=Nc1ccccc1O2 [amoxapine],0.134
21,CC(C)[C@@H](C)/C=C/[C@@H](C)[C@H]1CC[C@H]2C3=CC=C4C[C@@H](O)CC[C@]4(C)[C@H]3CC[C@]12C [ergosterol],-0.166
22,O=C1c2ccccc2C(=O)C1c1ccccc1 [phenindione],-0.0961
23,CC1(C)C=Cc2c(c3c(c4c(=O)c(-c5ccc(O)cc5)coc24)OC(C)(C)CC3)O1 [isoosajin],-0.129

# As entered above:
# Entry of Clc1ccc2c(c1)C(N1CCNCC1)=Nc1ccccc1O2 [amoxapine] under log: 0.134
# Entry of CC(C(=O)O)c1ccc(CC2CCCC2=O)cc1 (centres undefined) [loxoprofen] under log: 0.097

# (list continues)

row,Compound,log
1,O=C(O)CCc1nc(-c2ccccc2)c(-c2ccccc2)o1 [oxaprozin],0.0799
2,Oc1ccc(OCc2ccccc2)cc1 [monobenzone],0.033
3,C[C@H]1C[C@H]2[C@@H]3CCC4=CC(=O)C=C[C@]4(C)[C@@]3(F)[C@@H](O)C[C@]2(C)[C@@]1(O)C(=O)CO [betamethasone],-0.116
4,CC(C)C1=CC2=CC[C@@H]3[C@](C)(CCC[C@@]3(C)C(=O)O)[C@H]2CC1 [abietic acid],0.154
5,Cc1ccc(Cl)c(Nc2ccccc2C(=O)O)c1Cl [meclofenamate sodium],-0.00605
6,O=C(NCCO[N+](=O)[O-])c1cccnc1 [nicorandil],0.0583
7,CCN1CCN(C(=O)N[C@@H](C(=O)N[C@@H]2C(=O)N3C(C(=O)O)=C(CSc4nnnn4C)CS[C@H]23)c2ccc(O)cc2)C(=O)C1=O [cefoperazone],0.122
8,CN(C)CCOc1ccc(/C(=C(/CCCl)c2ccccc2)c2ccccc2)cc1 [toremiphene citrate],0.0433
9,CC(C(=O)O)c1ccc(N2Cc3ccccc3C2=O)cc1 (centres undefined) [indoprofen],0.168
10,CO[C@@]12[C@H](COC(N)=O)C3=C(C(=O)C(C)=C(N)C3=O)N1C[C@@H]1N[C@@H]12 [mitomycin],-0.785
11,CC1=Nc2ccc(Cl)cc2S(=O)(=O)N1 [diazoxide],-0.00201
12,O=c1c(-c2ccc(O)cc2)coc2c([C@@H]3O[C@H](CO)[C@@H](O)[C@H](O)[C@H]3O)c(O)ccc12 [puerarin],-0.0348
13,"O=C(O)C(S)C(S)C(=O)O (centres undefined) [2,3-dimercaptosuccinic acid]",0.0391
14,CCn1nc(C(=O)O)c(=O)c2cc3c(cc21)OCO3 [cinoxacin],-0.0774
15,Cc1cc(/C=C/c2ccc3cc(N(C)C)ccc3[n+]2C)c(C)n1-c1ccccc1 [pyrvinium pamoate],-1.39
16,CC(C)=CCC/C(C)=C/CC/C(C)=C/CC/C(C)=C/CC/C(C)=C/CC/C(C)=C/CC/C(C)=C/CC/C(C)=C/CC/C(C)=C/CO [solanesol],0.00103
17,CC(C)(Oc1ccc(C(=O)c2ccc(Cl)cc2)cc1)C(=O)O [fenofibric acid],0.107
18,CCCCNc1ccc(C(=O)OCCOCCOCCOCCOCCOCCOCCOCCOCCOC)cc1 [benzonatate],-0.0803
19,O=C(O[C@@H]1Cc2c(O)cc(O)cc2O[C@@H]1c1cc(O)c(=O)c2c(O)c(O)cc([C@H]3Oc4cc(O)cc(O)c4C[C@H]3O)c2c1)c1cc(O)c(O)c(O)c1 [theaflavin monogallates],0.189
20,COC(=O)CC[C@@H](C)[C@H]1CC[C@H]2[C@@H]3CC[C@@H]4C[C@H](O)CC[C@]4(C)[C@H]3C[C@H](O)[C@]12C [methyl deoxycholate],-0.226
21,C[C@@H]1C[C@H]2[C@@H]3CCC4=CC(=O)C=C[C@]4(C)[C@@]3(F)[C@@H](O)C[C@]2(C)[C@@]1(O)C(=O)CO [dexamethasone],-0.0826
22,OC1(c2ccc(Cl)c(C(F)(F)F)c2)CCN(CCCC(c2ccc(F)cc2)c2ccc(F)cc2)CC1 [penfluridol],-0.143
23,O=C(O)COC(=O)Cc1ccccc1Nc1c(Cl)cccc1Cl [aceclofenac],-0.0443

# Looked up one by one from above (three):
row,Compound,log
3,CCc1ccc(CCOc2ccc(CC3SC(=O)NC3=O)cc2)nc1 (centres undefined) [pioglitazone hydrochloride],-0.0193
11,CC[C@H]1OC(=O)[C@H](C)[C@@H](O[C@H]2C[C@@](C)(OC)[C@@H](O)[C@H](C)O2)[C@H](C)[C@@H](O[C@@H]2O[C@H](C)C[C@H](N(C)C)[C@H]2O)[C@](C)(O)C[C@@H](C)C(=O)[C@H](C)[C@@H](O)[C@]1(C)O [erythromycin stearate],0.0547
13,"O=C(O)C(S)C(S)C(=O)O (centres undefined) [2,3-dimercaptosuccinic acid]",0.0391

# Continued:

row,Compound,log
1,Cc1cnc(NC(=O)C2=C(O)c3ccccc3S(=O)(=O)N2C)s1 [meloxicam sodium],-0.0183
2,O=C(O)CCCc1ccccc1 [sodium phenylbutyrate],-0.0106
3,O=C(O)CCCc1ccccc1 [phenylbutyrate sodium],-0.0457
4,NC1=NCCN1CC(=O)O [cyclocreatine],0.122
5,CC1(C)O[C@@H]2C[C@H]3[C@@H]4CCC5=CC(=O)C=C[C@]5(C)[C@@]4(F)[C@@H](O)C[C@]3(C)[C@]2(C(=O)CO)O1 [triamcinolone acetonide],-0.184
6,C1CCN2C[C@@H]3C[C@@H](CN4CCCC[C@@H]34)[C@H]2C1 [sparteine sulfate],0.0674
7,CC1CC(OC(=O)C(O)c2ccccc2)CC(C)(C)N1C (centres undefined) [eucatropine hydrochloride],0.0726
8,OC[C@H]1O[C@@H](n2cnc3c(NCc4ccco4)ncnc32)[C@H](O)[C@@H]1O [kinetin riboside],0.0238
9,CCCCCCCC/C=C/CCCCCCCCOP(=O)([O-])OCC[N+](C)(C)C [elaidylphosphocholine],0.0328
10,Cc1nnc(NS(=O)(=O)c2ccc(N)cc2)s1 [sulfamethizole],0.101
11,COc1cc(NS(C)(=O)=O)ccc1Nc1c2ccccc2nc2ccccc12 [amsacrine],-0.85
12,C#CCCCCCCCCCCCc1ccco1 [avocadynofuran],0.0524
13,O=C1C2CC3CC1CC(O)(C3)C2 [idramantone],0.0308
14,CCN1CCN(c2cc3c(cc2F)c(=O)c(C(=O)O)cn3C2CC2)CC1 [enrofloxacin],0.107
15,CC(=O)O[C@@H]1CC2C(C)(C)C(=O)C3OC3[C@]2(C)C2CC[C@@]3(C)[C@H](c4ccoc4)OC(=O)C4OC43[C@@]21C (some centres undefined) [epoxygedunin],-0.0713
16,O=C(NCC(O)CO)c1c(I)c(C(=O)NCC(O)CO)c(I)c(N(CCO)C(=O)CO)c1I (centres undefined) [ioversol],0.0377
17,CO/N=C(\C(=O)N[C@@H]1C(=O)N2C(C(=O)O)=C(COC(N)=O)CS[C@H]12)c1ccco1 [cefuroxime sodium],-0.134
18,Nc1ccc(S(=O)(=O)Nc2ccnn2-c2ccccc2)cc1 [sulfaphenazole],0.0308
19,FC(F)(Cl)C(F)(F)Cl [cryoflurane],0.076
20,CCC(=O)c1c(O)cc(O)cc1O [flopropione],0.0289
21,CC1Cc2ccccc2N1NC(=O)c1ccc(Cl)c(S(N)(=O)=O)c1 (centres undefined) [indapamide],0.0888
22,CC(C)C[C@@H]1NC(=O)[C@H](CCCN)NC(=O)[C@H](C(C)C)NC(=O)[C@H](Cc2ccc(O)cc2)N[C@@H](CCC(=O)O)C(=O)N[C@@H](CC(N)=O)C(=O)[C@@H](Cc2ccccc2)NC(=O)[C@H](Cc2ccccc2)NC(=O)[C@@H]2CCCN2C(=O)[C@@H](Cc2ccccc2)NC1=O [tyrothricin],-1.98
23,Nc1ccc2cc3ccc(N)cc3nc2c1 [proflavine hemisulfate],-1.07
